Experimental data as given in PMC12408736.
For at least one entry, the source does not settle the construct or the ends of the probe.

Test system: Rap1 (Naumovozyma castellii)
Assay: EMSA
Conditions: labeled probe, no competitor; 10 mM Tris-HCl pH 7.5, 7 mM MgCl2, 8% glycerol; 10 fmol probe in 15 µl, ~0.6 µg Rap1 extract, 1.5 µg non-specific competitor (E. coli DNA, salmon sperm DNA, yeast tRNA); recombinant protein; label: 5'-32P (labeled probe), unlabeled as competitor

Sequence: GTCTGGGTGTCTGGGTGTC (double strand) [telomeric ds-probe (19 bp)]
- binding result: binds
